Reference: patent US20210261636A1, “NEOANTIGENS EXPRESSED IN MULTIPLE MYELOMA AND THEIR USES” (Janssen Biotech, Inc., priority 2020, published 2021)

What follows are sequences tested on CD138+ MM samples, MM and lymphoma cell lines, healthy donor PBMCs, sorted immune cells and healthy donor derived tissues (assay: Quantitative PCR analysis of multiple myeloma neoantigen expression in tumor and normal tissues). Conditions: qPCR, Ct normalized against RPL13A; high expression = ΔCt below 15; sorted immune cells from three healthy donors.
Design: species or system human
In the case of “GRAGQGGGMISVSQEFIK [FUS7, gene fusion FAM98A-> LOC105374454]”, the “expression in normal donor-derived B-cells and plasma cells” value (“expression” below) is reported as “showing expression”. For “IALQYCCTCSISQ [AS43, alternative splicing, LYSMD3]”, the “expression” value was “showing expression”. For “ISKRLKSRRRSGWQLNRAGNRGLSPGLGLFPRGCCRWGGAYTRLPSANQT [FUS20, gene fusion PTGES2-> SLC25A25-AS1]”, the “expression” value was “showing expression”. “QRDRDSIKVGLKIYRLRNGLKGL [AS76, alternative splicing, TLE4]” was tested, and the “expression” value was “showing expression”.
